Reference: PubChem BioAssay AID686938 (Drosophila RNAi Screening Center, 2013)

- Purpose: 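Knock-downs reducing store-operated calcium influx in Drosophila cells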 (primary screen)
- System: Drosophila S2R+ cells
- Reagents: long dsRNA against Drosophila genes, about 0.25 µg dsRNA per well, roughly 10,000 cells
- Timing: 5 days of knock-down before the calcium assay
- Challenge: thapsigargin (SERCA pump blocker) to empty calcium stores; entry signal taken 4 min after adding it
- Measured: 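Duplicate raw fluo-4 intensities per well from a plate reader, at rest and four minutes after thapsigargin emptied calcium stores; entry-to-rest ratio filled for only some wells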
- Scale: calcium entry signal: higher = stronger calcium signal after store depletion; entry to resting ratio: higher = more calcium entry relative to resting level; resting calcium signal: higher = higher resting calcium signal
- Rule for the call: 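Hit if the duplicate-averaged plate z-score for entry over resting signal is under −3; wells with weak total dye signal (Fmax z < −2) or more than 5 off-targets removed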
- Meaning of the calls: active = strongly reduced calcium entry; inactive = no strong reduction
The deposit covers about 23,000 reagents; shown is a random part of those with a known target gene and a result. Over the whole deposit, 75 (0.33%) are marked active. 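Raw plate signals without normalisation; calls rest on plate z-scores that were not deposited; ratio present for only 364 wells.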 Names joined by + are all predicted targets of the reagent. Not stated in the record: the dose of the treatment.

| predicted target | dsRNA | calcium entry signal, replicate 1 (fluorescence units) | calcium entry signal, replicate 2 (fluorescence units) | entry to resting ratio | resting calcium signal, replicate 1 (fluorescence units) | resting calcium signal, replicate 2 (fluorescence units) | outcome |
| --- | --- | --- | --- | --- | --- | --- | --- |
| CG43131 | DRSC12046 | 2.21e7 | 3.99e7 | – | 1.14e7 | 2.05e7 | inactive |
| MED25 (Mediator complex subunit 25) | DRSC14483 | 2.33e7 | 2.41e7 | – | 1.55e7 | 1.34e7 | inactive |
| MED25 (Mediator complex subunit 25) | DRSC22981 | 7.73e7 | 1.56e7 | – | 3.27e7 | 7.56e6 | inactive |
| CG8067 | DRSC07065 | 3.64e7 | 3.99e7 | – | 1.57e7 | 1.92e7 | inactive |
| CG14321 | DRSC14800 | 1.85e7 | 2.97e7 | – | 2.83e7 | 1.24e7 | inactive |
| CG42561 | DRSC05676 | 3.79e7 | 4.52e7 | – | 1.74e7 | 2.39e7 | inactive |
| rasp | DRSC08191 | 3.63e7 | 3.30e7 | – | 1.97e7 | 1.51e7 | inactive |
| mei-P26 (meiotic P26) | DRSC17735 | 2.29e7 | 2.53e7 | – | 1.47e7 | 1.56e7 | inactive |
| mei-P26 (meiotic P26) | DRSC23049 | 3.34e7 | 3.67e7 | – | 1.80e7 | 1.70e7 | inactive |
| CG1986 | DRSC18197 | 2.31e7 | 3.53e7 | – | 1.35e7 | 1.98e7 | inactive |
| Prosbeta3 (Proteasome beta3 subunit) | DRSC16801 | 1.75e7 | 2.05e7 | – | 1.29e7 | 1.30e7 | inactive |
| CG3253 | DRSC04350 | 4.01e7 | 3.51e7 | – | 2.00e7 | 1.78e7 | inactive |
| CG12744 | DRSC06164 | 4.03e7 | 3.70e7 | – | 1.78e7 | 1.78e7 | inactive |
| CG17974 | DRSC04299 | 4.50e7 | 5.60e7 | – | 2.41e7 | 2.36e7 | inactive |
| CG32507 | DRSC20421 | 3.39e7 | 3.12e7 | – | 1.65e7 | 1.58e7 | inactive |
| CG31515 | DRSC13610 | 3.17e7 | 3.12e7 | – | 1.44e7 | 1.53e7 | inactive |
| Ir92a (Ionotropic receptor 92a) | DRSC15111 | 3.21e7 | 4.80e7 | – | 5.43e7 | 2.34e7 | inactive |
| Hsp27 (Heat shock protein 27) | DRSC11190 | 5.03e7 | 4.00e7 | – | 3.19e7 | 1.75e7 | inactive |
| CG13760 | DRSC18617 | 3.26e7 | 4.61e7 | 2.2 | 1.47e7 | 1.82e7 | inactive |
| EMC6 (ER membrane protein complex subunit 6) | DRSC14386 | 4.41e7 | 6.59e7 | – | 1.86e7 | 2.41e7 | inactive |
| CG12171 | DRSC12200 | 4.42e7 | 2.98e7 | – | 2.11e7 | 1.49e7 | inactive |
| CG40551 (retired record) | DRSC21229 | 4.30e7 | 3.61e7 | – | 2.12e7 | 1.71e7 | inactive |
| CG3611 | DRSC04395 | 4.09e7 | 5.04e7 | – | 2.09e7 | 2.44e7 | inactive |
| Smurf (SMAD specific E3 ubiquitin protein ligase) | DRSC07641 | 5.13e7 | 6.56e7 | – | 2.42e7 | 3.20e7 | inactive |
| rig (rigor mortis) | DRSC06053 | 3.96e7 | 3.59e7 | – | 1.83e7 | 1.84e7 | inactive |
| rig (rigor mortis) | DRSC06400 | 2.29e7 | 2.82e7 | – | 1.16e7 | 1.40e7 | inactive |
| ais (aramis) | DRSC10523 | 3.61e7 | 4.17e7 | – | 1.77e7 | 3.12e7 | inactive |
| dare + CG30033 | DRSC22908 | 3.96e7 | 4.50e7 | – | 2.14e7 | 2.02e7 | inactive |
| CG6479 | DRSC10647 | 3.66e7 | 4.02e7 | – | 1.76e7 | 2.65e7 | inactive |
| Syn1 + CG7370 | DRSC22768 | 4.52e7 | 3.22e7 | – | 2.54e7 | 1.51e7 | inactive |
| Dic4 | DRSC10317 | 3.85e7 | 4.72e7 | – | 1.85e7 | 2.06e7 | inactive |
| CG31675 | DRSC01825 | 3.36e7 | 7.07e7 | – | 1.52e7 | 2.67e7 | inactive |
| CG5928 | DRSC18391 | 4.00e7 | 4.86e7 | – | 1.94e7 | 2.49e7 | inactive |
| AGBE (1,4-Alpha-Glucan Branching Enzyme) | DRSC06861 | 4.79e7 | 4.11e7 | – | 2.41e7 | 2.03e7 | inactive |
| CG43187 | DRSC05607 | 1.72e7 | 3.77e7 | – | 8.07e6 | 2.25e7 | inactive |
| hd (humpty dumpty) | DRSC12316 | 3.18e7 | 2.87e7 | – | 1.70e7 | 1.39e7 | inactive |
| CG13516 | DRSC04159 | 4.12e7 | 4.76e7 | – | 2.17e7 | 2.22e7 | inactive |
| CG6034 | DRSC10572 | 4.04e7 | 4.45e7 | – | 1.94e7 | 1.74e7 | inactive |
| CG34002 | DRSC09512 | 3.10e7 | 4.38e7 | – | 1.43e7 | 2.00e7 | inactive |
| Sap130 (Sin3A-associated protein 130) | DRSC09680 | 1.76e7 | 2.04e7 | – | 9.81e6 | 1.03e7 | inactive |
| Arpc1 (Actin-related protein 2/3 complex, subunit 1) | DRSC03438 | 5.03e7 | – | – | 2.32e7 | – | inactive |
| Nepl9 (Neprilysin-like 9) | DRSC02255 | 3.64e7 | 2.16e7 | – | 1.73e7 | 1.11e7 | inactive |
| Vps29 (Vacuolar protein sorting 29) | DRSC00666 | 3.90e7 | – | – | 2.26e7 | – | inactive |
| CG13917 | DRSC08386 | 3.16e7 | 3.87e7 | – | 1.54e7 | 1.85e7 | inactive |
| CG14323 | DRSC14802 | 3.93e7 | 5.75e7 | – | 1.90e7 | 6.45e7 | inactive |
| PGRP-LB (Peptidoglycan recognition protein LB) | DRSC14926 | 1.83e7 | 1.91e7 | – | 1.08e7 | 1.02e7 | inactive |
| snsl (snustorr snarlik) | DRSC00543 | 3.40e7 | 3.59e7 | – | 1.62e7 | 1.66e7 | inactive |
| tx (taxi) | DRSC16931 | 3.28e7 | 3.68e7 | – | 1.55e7 | 1.73e7 | inactive |
| CG7606 | DRSC13246 | 4.55e7 | 2.79e7 | – | 2.18e7 | 1.35e7 | inactive |
| CG7606 | DRSC16268 | 3.30e7 | 5.40e7 | – | 1.84e7 | 6.48e7 | inactive |
| lncRNA:CR32690 (long non-coding RNA:CR32690) | DRSC22219 | 3.47e7 | 4.83e7 | – | 1.90e7 | 2.84e7 | inactive |
| CG13144 | DRSC02241 | 3.66e7 | 4.40e7 | – | 1.84e7 | 1.90e7 | inactive |
| CG15258 | DRSC02478 | 4.96e7 | 3.02e7 | – | 2.07e7 | 1.48e7 | inactive |
| CG9522 | DRSC20197 | 3.45e7 | 3.09e7 | – | 1.77e7 | 1.56e7 | inactive |
| DIP-zeta (Dpr-interacting protein zeta) | DRSC02203 | 3.03e7 | 4.97e7 | – | 1.53e7 | 2.13e7 | inactive |
| DIP-zeta (Dpr-interacting protein zeta) | DRSC02204 | 2.95e7 | 2.12e7 | – | 1.52e7 | 1.13e7 | inactive |
| DIP-zeta (Dpr-interacting protein zeta) | DRSC02205 | 2.36e7 | 4.10e7 | – | 1.31e7 | 1.76e7 | inactive |
| shep (alan shepard) | DRSC08748 | 2.98e7 | 4.38e7 | – | 1.59e7 | 2.33e7 | inactive |
| shep (alan shepard) | DRSC09765 | 3.29e7 | 6.20e7 | – | 1.58e7 | 2.64e7 | inactive |
| shep (alan shepard) | DRSC09771 | 4.71e7 | 4.97e7 | – | 2.81e7 | 2.03e7 | inactive |

Ordered by “resting calcium signal, replicate 1 (fluorescence units)” (highest first): 10 of the entries above.
| predicted target | dsRNA | calcium entry signal, replicate 1 (fluorescence units) | calcium entry signal, replicate 2 (fluorescence units) | entry to resting ratio | resting calcium signal, replicate 1 (fluorescence units) | resting calcium signal, replicate 2 (fluorescence units) | outcome |
| --- | --- | --- | --- | --- | --- | --- | --- |
| CG14321 | DRSC14800 | 1.85e7 | 2.97e7 | – | 2.83e7 | 1.24e7 | inactive |
| CG17974 | DRSC04299 | 4.50e7 | 5.60e7 | – | 2.41e7 | 2.36e7 | inactive |
| CG3253 | DRSC04350 | 4.01e7 | 3.51e7 | – | 2.00e7 | 1.78e7 | inactive |
| rasp | DRSC08191 | 3.63e7 | 3.30e7 | – | 1.97e7 | 1.51e7 | inactive |
| mei-P26 (meiotic P26) | DRSC23049 | 3.34e7 | 3.67e7 | – | 1.80e7 | 1.70e7 | inactive |
| CG12744 | DRSC06164 | 4.03e7 | 3.70e7 | – | 1.78e7 | 1.78e7 | inactive |
| CG42561 | DRSC05676 | 3.79e7 | 4.52e7 | – | 1.74e7 | 2.39e7 | inactive |
| mei-P26 (meiotic P26) | DRSC17735 | 2.29e7 | 2.53e7 | – | 1.47e7 | 1.56e7 | inactive |
| CG1986 | DRSC18197 | 2.31e7 | 3.53e7 | – | 1.35e7 | 1.98e7 | inactive |
| Prosbeta3 (Proteasome beta3 subunit) | DRSC16801 | 1.75e7 | 2.05e7 | – | 1.29e7 | 1.30e7 | inactive |
